Laboratory results published in article PMC4619689.
Results are given in words; binding and its absence hold for the method and conditions named. Binding seen in cells or lysates may run through a third protein. A result given as binding can be weak or reduced; the word gives no strength.

The chains behind the UniProt entries cited, without tags or fusion partners. Where a name states a change or a piece, a line headed by the entry shows the natural chain unless it says otherwise.
UniProt Q5ZJC3: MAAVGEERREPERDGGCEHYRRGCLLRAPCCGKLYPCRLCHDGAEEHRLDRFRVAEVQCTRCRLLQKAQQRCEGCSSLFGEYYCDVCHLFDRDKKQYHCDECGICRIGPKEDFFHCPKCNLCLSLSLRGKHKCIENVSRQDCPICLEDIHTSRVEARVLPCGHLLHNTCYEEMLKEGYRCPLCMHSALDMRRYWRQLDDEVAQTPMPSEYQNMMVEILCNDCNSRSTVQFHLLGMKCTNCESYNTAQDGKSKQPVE
UniProt Q08727: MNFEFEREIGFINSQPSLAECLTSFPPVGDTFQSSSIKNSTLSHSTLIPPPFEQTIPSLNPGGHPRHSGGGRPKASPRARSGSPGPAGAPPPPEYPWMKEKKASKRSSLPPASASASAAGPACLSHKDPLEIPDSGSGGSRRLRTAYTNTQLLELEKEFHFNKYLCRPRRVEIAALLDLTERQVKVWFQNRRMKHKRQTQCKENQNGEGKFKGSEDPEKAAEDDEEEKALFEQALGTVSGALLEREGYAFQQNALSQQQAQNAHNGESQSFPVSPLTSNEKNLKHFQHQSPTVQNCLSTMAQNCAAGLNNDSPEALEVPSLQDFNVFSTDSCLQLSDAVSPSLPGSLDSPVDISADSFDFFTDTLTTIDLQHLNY

Target: Rchy1 (chicken), BiFC fusion (chicken) (UniProt Q5ZJC3)
Assay: split reporter; COS-7 cells on coverslips transfected with pExp-VN173 and pExp-VC155 fusion vectors (500 ng each), fixed 24 to 31 h after transfection. Where indicated the cells were treated with the proteasome inhibitor MG132. Counted positive at 3 times or more the fluorescence of the 3 control conditions.

## Hoxa2 (chicken), BiFC fusion (from UniProt Q08727 1-375)
  binding: binds
